# Values joined by “and” are separate entries in the source; they are usually repeats but may differ in a detail not shown here. Equal values may be shown once. The list shows a part of the results. Further columns of the screen follow, without active or inactive calls. Compounds called inactive in the main read-out are mostly missing here. Words in brackets tell the shape of the fitted curve; partial curves, single points and poor fits give uncertain potencies.
# Experiment: Cell signaling CRE-BLA (Fsk stim)
# Details: CHO CRE-bla reporter (cAMP response element driving beta-lactamase), forskolin EC10, beta-lactamase ratio; measured here: 460 nm blue channel
# How it was run: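 Modulation of forskolin signalling: compounds in titration series added with EC10 NKH 477 to CHO cells carrying a CRE-driven beta-lactamase reporter, 3 h, 37C. CCF4 FRET ratio (460/530 nm, ex 405 nm) gives %activity and AC50.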
row,Structure (SMILES),AC50
1,O=C(NCCCn1ccnc1)Nc1ccc(Cl)cc1,"0.00794 µM [falling, full curve]"
2,CCOC(=O)N1CCc2c(sc(NC(=O)c3ccc(S(=O)(=O)N4CCCC4)cc3)c2C#N)C1,"12.6 µM [rising, single point]"
3,COc1ccccc1CNc1nc(-c2c(C)noc2C)nc2ccccc12,"10 µM [rising, partial curve]"
4,N#Cc1cc2ccc(N3CCOCC3)cc2cc1C#N,"15.8 µM [rising, partial curve]"
5,[O-]/[N+](=C/c1cccnc1)c1ccc(Br)cc1,"0.00398 µM [falling, full curve, poor fit]"
6,COc1ccccc1CCn1c(=O)c(-c2ccc(F)c(F)c2)nc2cncnc21,"10 µM [rising, partial curve]"
7,CCN(CC)c1nc(-c2nn[nH]n2)nc(N(CC)CC)n1,"0.316 µM [rising, full curve]"
8,C/C=C/Cn1c(Br)nc2c1c(=O)n(C)c(=O)n2C,"12.6 µM [rising, single point]"
9,O=C1CC(c2nc3ccccc3[nH]2)CN1Cc1ccccc1 (centres undefined),"10 µM [rising, single point]"
10,CCN(CC)C(=O)C1CC(c2ccc(OC)cc2)=NO1 (centres undefined),"25.1 µM [rising, single point]"
11,CCN(CC(=O)NCc1cccs1)S(=O)(=O)c1cccc(C(C)=O)c1,"0.0501 µM [falling, full curve]"
12,Cc1coc(C)c1C(=O)CC1(O)C(=O)Nc2cc(Cl)cc(Cl)c21 (centres undefined),"10 µM [falling, partial curve]"
13,O=C(NCCCn1ccnc1)C1c2ccccc2Oc2ccccc21,"0.0251 µM [falling, full curve, poor fit]"
14,CS/C(=N\S(=O)(=O)c1cccs1)Nc1ccc(N2CCOCC2)cc1,"1.26 µM [falling, partial curve]"
15,CCCC(=O)NCCc1cc2ccc(C)c(C)c2[nH]c1=O,"10 µM [rising, partial curve]"
16,COc1ccc(-c2cc(C(F)F)n3ncc(C(=O)N4CCN(C(=O)c5ccco5)CC4)c3n2)cc1,"12.6 µM [rising, partial curve]"
17,Cc1nc2cnc(N3CCNCC3)nc2n(Cc2cccs2)c1=O,"12.6 µM [rising, partial curve]"
18,Cn1c(Cc2csc(N)n2)nnc1SCC(=O)NC1CCCCC1,"0.00398 µM [falling, full curve, poor fit]"
19,COC(=O)c1sc(NC(=O)C2CCCO2)c(C(=O)OC)c1C (centres undefined),"0.631 µM [rising, full curve, poor fit]"
20,CCCN(C/C=C\I)[C@@H]1CCc2cccc(O)c2C1,"15.8 µM [falling, partial curve, poor fit]"
21,CCN1CCN(C(=O)c2cc3c(=O)n(C)c4ccccc4c3n2C)CC1,"25.1 µM [rising, single point]"
22,N#CCCSCc1ccc2oc(C(=O)O)cc2c1,"10 µM [falling, partial curve]"
23,CCOc1ccccc1-c1nc(C(N)=O)c2[nH]c(=O)n(-c3cccc(C)c3)c2n1,"12.6 µM [rising, partial curve]"

row,Structure (SMILES),AC50
1,CNC(=O)C(Sc1ccccc1)c1ccccc1 (centres undefined),"0.00316 µM [falling, full curve, poor fit]"
2,COc1ccc(CNC(=O)CSc2nnnn2-c2ccc(O)cc2)cc1,"5.01 µM [falling, partial curve, poor fit]"
3,Cc1ccc(C2C(C#N)=C(N)Oc3c2sc2ccccc32)o1 (centres undefined),"0.316 µM [falling, partial curve, poor fit]"
4,N#Cc1cc(-c2ccccc2)oc1NC(=O)c1ccco1,"0.501 µM [rising, full curve]"
5,CCOc1ccc(S(=O)(=O)N2CCN(S(=O)(=O)c3ccc(OCC)cc3)C(C)C2)cc1 (centres undefined),"0.316 µM [rising, full curve]"
6,Cc1cc(N=Cc2c(O)ccc3ccccc23)no1,"15.8 µM [falling, partial curve]"
7,COC(=O)C(O)(NC(=O)OCc1ccccc1)C(F)(F)F (centres undefined),"12.6 µM [falling, partial curve]"
8,Cc1cccc(CNc2nc(-c3ccccc3CN(C)C)nc3ccccc23)c1,"6.31 µM [rising, partial curve]"
9,CC(=O)c1cc2c(cc1NC(=O)CSc1nnc(C)s1)OCO2,"12.6 µM [rising, single point]"
10,Cc1cc(N2CCOCC2)n2nc(C)c(-c3ccccc3)c2n1,"10 µM [rising, partial curve]"
11,C(=N\c1nc2ccccc2n1CCN1CCOCC1)/c1cccs1,"1.58 µM [rising, partial curve]"
12,Cc1ccc2c(CN3C(=O)NC4(CCCCC4)C3=O)cc(=O)oc2c1C,"10 µM [rising, partial curve]"
13,COc1ccc(Cc2nc(-c3ccc(Br)o3)no2)cc1OC,"2 µM [rising, partial curve]"
14,O=C(Nc1nc(-c2ccc3c(c2)OCO3)cs1)c1ccncc1,"15.8 µM [falling, single point]"
15,Cc1c(Nc2ncnc3nc[nH]c23)c(=O)n(-c2ccccc2)n1C,"3.16 µM [rising, full curve]"
16,COc1ccc(Oc2ncc3nc(-c4ccccc4)c(=O)n(CCC#N)c3n2)cc1,"12.6 µM [rising, partial curve]"
17,Cc1nc2ccc(NC(=O)N3CCC(c4ccccc4)C3)cc2nc1C (centres undefined),"10 µM [rising, partial curve]"
18,CCNc1nc(SC(C)C(=O)OC)nc(N2CCOCC2)n1 (centres undefined),"12.6 µM [rising, partial curve]"
19,N#CCCn1c(SCC(=O)NCC2CCCO2)nc2ccccc21 (centres undefined),"0.2 µM [falling, partial curve]"
20,Cc1ccc2nc3c(cc(C#N)c(=N)n3CC3CCCO3)c(=O)n2c1 (centres undefined),"2.51 µM [rising, partial curve]"
21,COC(=O)Nc1nc(C)c(C(=O)N(C)C)s1,"5.01 µM [falling, single point]"
22,CSc1ncccc1C(=O)OCC(=O)Nc1cc(C(F)(F)F)ccc1N1CCOCC1,"12.6 µM [rising, partial curve]"
23,COc1cccc(-c2ccc3ncnc(NC4CC4)c3c2)c1,"3.16 µM [rising, full curve]"

row,Structure (SMILES),AC50
1,CSc1ccc(CN2CCC(O)CC2)cc1,"1 µM [rising, single point]"
2,Cn1c(=N)c(S(=O)(=O)c2ccc(Cl)cc2)cc2c(=O)n3ccccc3nc21,"12.6 µM [rising, partial curve]"
3,Cc1nc(C)c(C(=O)Nc2nc3c(C)cccc3s2)o1,"5.01 µM [falling, partial curve]"
4,CC(=O)NCCn1c(SCc2cc(=O)n3cc(Cl)ccc3n2)nc2ccccc2c1=O,"0.501 µM [rising, full curve]"
5,CCOC(=O)C1CCN(C(=O)CC(NS(=O)(=O)c2ccc(OC)cc2)C(C)C)CC1 (centres undefined),"7.94 µM [rising, partial curve]"
6,CCC(C)NC(=O)C1c2ccccc2C(=O)N1Cc1cc(OC)ccc1OC (centres undefined),"0.0794 µM [falling, single point]"
7,CCOC(=O)c1nnn(-c2nonc2-n2cccc2)c1CN1CCC(C)CC1,"0.398 µM [falling, full curve]"
8,COc1ccc(C(=O)NCc2cn3cccc(C)c3n2)cc1OC,"10 µM [rising, single point]"
9,CON(C)c1nc(OCCNC(=O)OCc2ccc(Cl)cc2Cl)nc(N(C)C)n1,"12.6 µM [rising, single point]"
10,CC(=O)C1=C(O)C(=O)N(Cc2ccccc2)C1c1ccco1 (centres undefined),"0.631 µM [falling, single point]"
11,Cc1nc2[nH]c(=O)c3c(n2n1)NC1=C(C(=O)CC(C)(C)C1)C3c1ccccc1 (centres undefined),"20 µM [rising, single point]"
12,COc1ccc(-c2nnco2)cc1OC,"25.1 µM [rising, single point]"
13,CCOC(=O)c1sc(N)c(C#N)c1CSc1nc2ccc(OCC)cc2[nH]1,"12.6 µM [rising, single point]"
14,O=c1cc(-c2cccc(O)c2O)oc2ccccc12,"31.6 µM [falling, single point]"
15,O=c1c(-c2ccc(O)cc2)coc2cc(O)cc(O)c12,"31.6 µM [falling, single point]"
16,Cc1cc(Cl)cc(C)c1OCCCCn1ccnc1,"25.1 µM [falling, single point]"
17,CCOC(=O)Nc1ccc2c(c1)N(C(=O)CCN1CCOCC1)c1ccccc1S2,"631 nM [rising, full curve] and 10 µM [rising, single point]"
18,COc1ccccc1CN(Cc1cc2c(C)ccc(C)c2[nH]c1=O)Cc1nnnn1Cc1ccco1,"3.98 µM [rising, single point]"
19,O=C(Nc1ncnc2sc3c(c12)CCC3)c1ccco1,"5.01 µM [rising, full curve, poor fit]"
20,CSCCC(NC(N)=O)C(=O)NCC1CCCCC1 (centres undefined),"3.98 µM [falling, single point]"
21,Oc1ccc(-c2nc3cnccn3c2Nc2ccc3c(c2)OCCO3)cc1,"12.6 µM [falling, partial curve]"
22,O=C(C1CC1)N(CCc1ccccc1)Cc1nc2ccccc2c(=O)[nH]1,"0.794 µM [falling, partial curve]"
23,CCOC(=O)c1cc2c(ccn2C)n1CC(=O)N1CCC(Cc2ccccc2)CC1,"3.16 µM [falling, single point]"
